# Results of single-concentration screens

Chains of the proteins cited; added tags and fusions are not shown.
UniProt P9WNZ1, whole entry: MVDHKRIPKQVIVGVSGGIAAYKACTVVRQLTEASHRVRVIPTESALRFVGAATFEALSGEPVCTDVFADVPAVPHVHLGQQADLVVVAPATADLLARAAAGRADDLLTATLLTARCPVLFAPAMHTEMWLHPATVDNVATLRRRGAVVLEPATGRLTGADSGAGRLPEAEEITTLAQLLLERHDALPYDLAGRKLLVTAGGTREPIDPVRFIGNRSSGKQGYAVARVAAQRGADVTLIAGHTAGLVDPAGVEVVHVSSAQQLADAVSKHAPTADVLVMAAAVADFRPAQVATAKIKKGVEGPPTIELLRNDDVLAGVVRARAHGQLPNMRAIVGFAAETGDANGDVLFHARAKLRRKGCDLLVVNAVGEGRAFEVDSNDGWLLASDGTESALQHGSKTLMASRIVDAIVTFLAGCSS
UniProt P9WFT3, whole entry: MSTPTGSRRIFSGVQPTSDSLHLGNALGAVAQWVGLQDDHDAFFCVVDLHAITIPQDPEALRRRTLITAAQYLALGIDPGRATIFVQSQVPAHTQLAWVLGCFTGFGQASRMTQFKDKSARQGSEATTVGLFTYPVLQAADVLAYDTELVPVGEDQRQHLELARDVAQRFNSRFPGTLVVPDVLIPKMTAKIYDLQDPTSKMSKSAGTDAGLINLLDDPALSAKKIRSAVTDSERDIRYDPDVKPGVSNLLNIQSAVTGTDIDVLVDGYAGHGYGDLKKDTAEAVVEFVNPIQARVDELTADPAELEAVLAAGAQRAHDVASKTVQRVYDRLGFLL
UniProt I6X8D2, whole entry: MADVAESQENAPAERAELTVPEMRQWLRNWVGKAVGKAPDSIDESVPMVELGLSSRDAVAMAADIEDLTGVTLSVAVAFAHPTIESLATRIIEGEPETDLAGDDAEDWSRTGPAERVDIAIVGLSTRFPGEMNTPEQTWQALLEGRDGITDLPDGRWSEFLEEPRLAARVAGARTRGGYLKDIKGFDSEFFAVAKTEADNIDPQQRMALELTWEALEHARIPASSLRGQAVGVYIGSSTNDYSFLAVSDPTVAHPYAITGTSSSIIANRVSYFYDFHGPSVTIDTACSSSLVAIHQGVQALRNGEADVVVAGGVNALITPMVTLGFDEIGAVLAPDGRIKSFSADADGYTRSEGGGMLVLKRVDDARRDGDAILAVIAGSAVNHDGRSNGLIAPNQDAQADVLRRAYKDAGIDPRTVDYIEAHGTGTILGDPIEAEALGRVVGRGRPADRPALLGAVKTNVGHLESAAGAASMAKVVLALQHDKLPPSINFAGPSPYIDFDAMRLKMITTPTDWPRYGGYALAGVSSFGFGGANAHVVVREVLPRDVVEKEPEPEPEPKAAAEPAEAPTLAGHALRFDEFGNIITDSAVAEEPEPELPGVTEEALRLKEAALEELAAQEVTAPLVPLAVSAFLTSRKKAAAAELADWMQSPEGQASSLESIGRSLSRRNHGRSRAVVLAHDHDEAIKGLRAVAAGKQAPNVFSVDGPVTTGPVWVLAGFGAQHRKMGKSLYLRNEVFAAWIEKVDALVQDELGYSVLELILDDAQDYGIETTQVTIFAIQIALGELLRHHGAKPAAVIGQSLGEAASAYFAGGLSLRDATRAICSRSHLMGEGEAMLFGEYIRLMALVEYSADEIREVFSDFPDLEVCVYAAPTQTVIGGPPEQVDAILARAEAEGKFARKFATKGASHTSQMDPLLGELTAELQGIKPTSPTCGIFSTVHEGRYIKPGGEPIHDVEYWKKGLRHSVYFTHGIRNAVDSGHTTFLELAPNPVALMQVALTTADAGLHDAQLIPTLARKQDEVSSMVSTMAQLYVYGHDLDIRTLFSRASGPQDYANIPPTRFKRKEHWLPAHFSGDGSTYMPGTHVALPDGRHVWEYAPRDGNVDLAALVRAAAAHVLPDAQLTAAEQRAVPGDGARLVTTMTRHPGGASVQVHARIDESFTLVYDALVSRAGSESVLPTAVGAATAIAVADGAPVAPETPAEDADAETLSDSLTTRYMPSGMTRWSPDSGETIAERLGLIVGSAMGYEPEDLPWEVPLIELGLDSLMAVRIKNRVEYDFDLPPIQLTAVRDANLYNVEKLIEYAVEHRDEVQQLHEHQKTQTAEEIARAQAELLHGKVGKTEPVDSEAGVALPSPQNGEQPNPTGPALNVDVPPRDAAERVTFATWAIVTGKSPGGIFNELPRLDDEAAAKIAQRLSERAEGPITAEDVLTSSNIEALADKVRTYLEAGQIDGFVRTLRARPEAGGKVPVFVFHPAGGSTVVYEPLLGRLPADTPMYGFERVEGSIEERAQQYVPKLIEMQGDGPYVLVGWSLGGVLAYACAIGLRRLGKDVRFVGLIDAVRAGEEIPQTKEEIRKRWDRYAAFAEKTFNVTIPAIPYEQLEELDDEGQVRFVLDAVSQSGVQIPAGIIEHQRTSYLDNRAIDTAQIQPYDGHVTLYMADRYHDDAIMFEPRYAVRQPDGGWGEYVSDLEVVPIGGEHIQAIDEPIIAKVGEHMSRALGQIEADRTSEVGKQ

CoaBC: 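Coenzyme A biosynthesis protein CoaBC, Mycobacterium tuberculosis (UniProt P9WNZ1). Enzyme assay of CoaBC with a phosphate dye (Biomol Green) read at 650 nm. Tested at 30 µM. Direction is inferred from only a few compounds that gave an IC50; most scored high, so higher reads as stronger inhibition. Most strong results did not repeat in a second test. About 67,000 compounds were tested under these conditions; 0.06% (about 40) showed 50% or more at least once.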
MtTrpRS: 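Enzyme assay of tryptophanyl-tRNA synthetase; the read-out is not stated. Target: Tryptophan-tRNA ligase, Mycobacterium tuberculosis (UniProt P9WFT3). Concentration: 10 µM. Higher most likely means stronger inhibition; the record gives no direction and few retests gave an IC50. About 65,000 compounds were tested under these conditions; 0.098% (about 64) showed 50% or more at least once.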
Pks13 thioesterase: 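Polyketide synthase Pks13, Mycobacterium tuberculosis (UniProt I6X8D2). Enzyme assay of the thioesterase domain of polyketide synthase 13; the read-out is not stated. Concentration: 30 µM. Higher reads as stronger inhibition (inferred from which compounds were picked for retests). About 67,000 compounds were tested under these conditions; 0.46% (about 300) showed 50% or more at least once.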

Values are the deposited “Percent Effect”, in %.
The controls that fix the scale are not given in the record; negative values are as filed.
Compounds were drawn at random from those tested, without regard to their results.
Two or more numbers in one place are separate tests of the same structure; such repeats can differ widely.
A dash means the value is not listed here; it may have been measured.

| # | structure | CoaBC | MtTrpRS | Pks13 thioesterase |
|---|---|---|---|---|
| 1 | `COc1ccccc1CC(C)CC(=O)NC(C)C` (centres unmarked) | 9.794% & 26.04% | -6.068% | -18.92% |
| 2 | `CN(C)S(=O)(=O)c1ccc(CN2CCCC2CO)o1` (centres unmarked) | 2.504% | 4.191% | -6.846% |
| 3 | `CC(=O)N1CCC(Oc2ccc(Cl)cc2C(=O)N2CCCO2)CC1` | 1.653% | -2.031% | -14.45% |
| 4 | `Cc1ccc(S(=O)(=O)N2CC[C@@H](O)C2)c(F)c1` | -3.727% | 2.312% | -8.159% |
| 5 | `CC(C)c1noc(Cn2ncc3ccccc3c2=O)n1` | - | -3.128% | -29.68% |
| 6 | `c1ccc(OCC2CC3(CCN(CC4CCOCC4)CC3)CO2)nc1` (centres unmarked) | -3.759% | -2.49% | - |
| 7 | `Cc1ncc(C(=O)N2CCCC(C(=O)CCc3ccccc3)C2)s1` (centres unmarked) | 3.165% | -2.583% | 10.09% |
| 8 | `COC(=O)N1CCN(c2ncnc3nc(C)cc(C)c23)CC1` | 3.14% | 4.699% | 8.455% |
| 9 | `CCOc1cc(C)nc(N2CCN(C(=O)c3cc(Cl)c[nH]3)CC2)n1` | 6.909% | -3.232% | -6.074% |
| 10 | `Cc1ccccc1CN1CCC(c2nn(CCN)c3nccnc23)C1` (centres unmarked) | 5.328% | - | -9.163% |
| 11 | `CNC(=O)Cc1n[nH]c(-c2cncc(Br)c2)n1` | -3.789% | 1.004% | -11.99% |
| 12 | `Cc1ccc2nc(C)c(C)c(C(=O)N3CCN(c4nccs4)CC3)c2c1` | 3.599% | -3.961% | -28.85% |
| 13 | `CCN1CCN(C(=O)COCc2cccc(OC)c2)CC1` | 3.169% | -0.4394% | -9.194% |
| 14 | `O=C(NCC(=O)N1CCCC1)c1nn(-c2ccccc2F)cc1O` | 3.061% | -1.004% | -5.384% |
| 15 | `CNC(=O)C1CCC2(CCN(c3ncc(C)cn3)CC2)CO1` (centres unmarked) | - | 0.0969% | 13.81% |
| 16 | `COCc1cc(N2CCN(c3ccc(Cl)cn3)CC2)n2nccc2n1` | -6.813% | -3.339% | -9.525% |
| 17 | `CO[C@@H]1CCC[C@@H](N(C)C(=O)c2cc(F)ccc2F)[C@H]1O` | 7.601% | -4.687% | -10.99% |
| 18 | `CN(CC(=O)N1CCN(c2ccccn2)CC1)c1ccc(Cl)cn1` | 3.215% | 3.73% | -19.75% |
| 19 | `Cc1ccc(Nc2c(C#N)c(=O)n(C)c(=O)n2C)cc1F` | -2.146% | -5.893% | - |
| 20 | `Cc1nc(C)n(CC2CN(c3ccc(C#N)cn3)CCO2)n1` (centres unmarked) | 9.85% | 1.072% | -6.838% |
| 21 | `Cc1ncc2c(n1)CN(CCOCC(F)(F)F)CC2` | 2.337% | 2.768% | 11.88% |
| 22 | `CCC(=O)N1CCC2(COCc3c(C)nc(NCc4ccco4)nc32)C1` (centres unmarked) | 5% | 0.9168% | -12.81% |
| 23 | `Cc1nc(CN2CCCC(Nc3ncnc4c3CCC4)C2)no1` (centres unmarked) | -1.613% | -6.901% | 2.462% |
| 24 | `CC(C)c1nc(C2CCCN2c2ccnc(C3CCCC3)n2)no1` (centres unmarked) | 1.446% | -3.121% | -9.102% |
| 25 | `COc1ccc(CNCCn2c(C)nc3ccccc32)cc1O` | 2.926% | -0.8909% | 5.647% |
| 26 | `CN(C)CCOCc1cncc2c1CCN(C(=O)C1CCOCC1)C2` | 3.659% | - | 12.3% |
| 27 | `CC(=O)NC1CCN(C(=O)Nc2cccc(C(F)(F)F)c2)CC1` | -1.202% | -0.4566% | -14.01% |
| 28 | `COCC(C)(CCO)NC(=O)Nc1c(F)cccc1Br` (centres unmarked) | 4.232% | -4.224% | -17.35% |
| 29 | `CC(C)N(C(=O)c1ccccc1-c1nc2c([nH]1)CCNC2)C(C)C` | -9.274% | 6.965% | 22.64% |
| 30 | `NC(=O)NCCC(=O)N1CCC(c2cc(Cc3ccccc3)n[nH]2)CC1` | -0.2558% | -1.417% | -0.1472% |
| 31 | `c1cnc(N2CCCC(c3n[nH]c4ncccc34)C2)nc1` (centres unmarked) | 4.369% | - | -7.953% |
| 32 | `Cc1nn(C)c(N(C)C)c1CNCC(O)c1ccccc1` (centres unmarked) | -2.345% | -2.495% | -4.786% |
| 33 | `Nc1ncc(-c2ccc(F)cc2)c(C2CCCNC2)n1` (centres unmarked) | 10.96% | 11.31% | -40.88% |
| 34 | `Cc1nc(C2CCCN(C(=O)c3sccc3C3CC3)C2)no1` (centres unmarked) | 5.063% | -4.55% | -6.274% |
| 35 | `COc1c2ccc(C(=O)NCCCn3ncccc3=O)cc2nn1C` | 12.9% | 7.219% | 1.151% |
| 36 | `Cc1ccc(CN2CCO[C@H]3[C@H](OCc4cccnc4)CC[C@@H]32)o1` | -0.9901% | - | -24.48% |
| 37 | `Cc1cc2nc(SCC(=O)N3CCCCC3)n(C)c(=O)c2[nH]1` | -1.266% | -2.386% | 6.109% |
| 38 | `CNC(=O)C1(C)CN(Cc2cn(C)c3ccc(F)cc23)CCO1` (centres unmarked) | 5.226% | -8.492% | -7.054% |
| 39 | `COc1ccc2c(c1)s/c(=N\C(=O)CSCC(=O)Nc1nccs1)n2C` | -7.822% | 9.954% | 12.91% |
| 40 | `CC(C)c1nccc(CN(C)Cc2cnn(-c3ccccc3)c2)n1` | 0.9709% | 4.693% | 1.056% |
| 41 | `CCCc1cc(NC2CCc3nc(C(C)C)nn3C2)n2ncnc2n1` (centres unmarked) | 5.762% | 6.427% | 3.401% |
| 42 | `COCCNC(=O)N1CCCC1COc1ccccc1` (centres unmarked) | 15.82% | -2.417% | -10.69% |
| 43 | `CCCN1CCC(CNC(=O)C2(c3ccccc3)CCC2)C1` (centres unmarked) | -0.3831% | 2.568% | -16.24% |
| 44 | `O=C(NC1CCCC1)[C@H]1C[C@H]2OCC[C@H]2N(Cc2ccoc2)C1` | -2.03% | -7.654% | -11.93% |
| 45 | `Cc1nc(CN(C)Cc2nc(-c3ccccc3)no2)co1` | 1.923% | -2.283% | -0.8648% |
| 46 | `CC(C)OC(=O)N1CCC(Nc2ncc(Br)cn2)CC1` | 5% | 1.041% | -13.37% |
| 47 | `Cc1ccsc1C(=O)N1CCC(c2nccn2Cc2ccncc2)CC1` | 1.568% | -0.942% | -1.232% |
| 48 | `CSCCC(=O)N1CCC(CCC(=O)NCC2CCCO2)CC1` (centres unmarked) | -3.674% | 5.266% | -9.19% |
| 49 | `CC(C)(C)C(=O)NCC(=O)NCC1CCCS1` (centres unmarked) | 1.096% | -0.5727% | -14.32% |
| 50 | `Cc1cnccc1CN1CC[C@@](C)(O)[C@H](Oc2ccccc2)C1` | 5.278% | 2.09% | -7.734% |
| 51 | `COc1cc(N2CC[C@@H](OC)[C@@H]2Cc2cnn(C)c2)ncn1` | 3.529% | 10.95% | -17.01% |
| 52 | `CNc1ncc(C(=O)N2CCCC(Cc3ccccc3OC)C2)s1` (centres unmarked) | -10% | 10.89% | -104.6% |
| 53 | `COc1c(CNCC(c2cccc(F)c2)N(C)C)c(C(C)C)nn1C` (centres unmarked) | -10% | -3.206% | -11.52% |
| 54 | `NC(=O)c1ccc(C2CCCNC2)nc1` (centres unmarked) | -1.36% | -2.196% | 9.213% |
| 55 | `CN(Cc1ccccn1)c1nccc(N2CCN[C@H]3CS(=O)(=O)C[C@H]32)n1` | 1.33% | 0.3673% | -3.123% |
| 56 | `COc1cc(N2CCC3(C2)CN(c2cccnc2)C(=O)CN3C)ncn1` (centres unmarked) | 0.4926% | -6.787% | -8.941% |

Repeated from the top, 7 entries:

- COc1ccccc1CC(C)CC(=O)NC(C)C (centres unmarked) : CoaBC: 9.794% & 26.04%; MtTrpRS: -6.068%; Pks13 thioesterase: -18.92%
- CN(C)S(=O)(=O)c1ccc(CN2CCCC2CO)o1 (centres unmarked) : CoaBC: 2.504%; MtTrpRS: 4.191%; Pks13 thioesterase: -6.846%
- CC(=O)N1CCC(Oc2ccc(Cl)cc2C(=O)N2CCCO2)CC1 : CoaBC: 1.653%; MtTrpRS: -2.031%; Pks13 thioesterase: -14.45%
- Cc1ccc(S(=O)(=O)N2CC[C@@H](O)C2)c(F)c1 : CoaBC: -3.727%; MtTrpRS: 2.312%; Pks13 thioesterase: -8.159%
- CC(C)c1noc(Cn2ncc3ccccc3c2=O)n1 : MtTrpRS: -3.128%; Pks13 thioesterase: -29.68%
- c1ccc(OCC2CC3(CCN(CC4CCOCC4)CC3)CO2)nc1 (centres unmarked) : CoaBC: -3.759%; MtTrpRS: -2.49%
- Cc1ncc(C(=O)N2CCCC(C(=O)CCc3ccccc3)C2)s1 (centres unmarked) : CoaBC: 3.165%; MtTrpRS: -2.583%; Pks13 thioesterase: 10.09%

From ChEMBL document CHEMBL3988442, “University of Dundee, Small-Polar-MMV Screening Library” (2021).